These are yes or no findings as the source states them, for the method shown. Binding seen in cells or lysates may run through a third protein. Binding calls can cover weak binding; strength is not graded here. Where a sequence is shown, tags or fusion partners need not be part of it.
Assays:
[1] = molecular target: Flag-RIG-I deletion mutant carrying the C-terminal domain; assay: co-IP; HEK293T cells co-transfected; lysis buffer 50 mM Tris-HCl pH 7.4, 150 mM NaCl, 10% glycerol, 1% Nonidet P-40, 0.1% SDS, 2 mM Na2EDTA; lysates immunoprecipitated with anti-Flag antibody (overnight, 4 °C, Protein A+G agarose), immunoblotted with anti-HA antibody
[2] = molecular target: Flag-RIG-I-N (N-terminal CARD domain of RIG-I); assay: as above

B1: HA-USP15-WT (ubiquitin-specific protease 15, wild type) (enzyme, UniProt Q9Y4E8-2 1-952)
chain: MAEGGAADLDTQRSDIATLLKTSLRKGDTWYLVDSRWFKQWKKYVGFDSWDKYQMGDQNVYPGPIDNSGLLKDGDAQSLKEHLIDELDYILLPTEGWNKLVSWYTLMEGQEPIARKVVEQGMFVKHCKVEVYLTELKLCENGNMNNVVTRRFSKADTIDTIEKEIRKIFSIPDEKETRLWNKYMSNTFEPLNKPDSTIQDAGLYQGQVLVIEQKNEDGTWPRGPSTPNVKNSNYCLPSYTAYKNYDYSEPGRNNEQPGLCGLSNLGNTCFMNSAIQCLSNTPPLTEYFLNDKYQEELNFDNPLGMRGEIAKSYAELIKQMWSGKFSYVTPRAFKTQVGRFAPQFSGYQQQDCQELLAFLLDGLHEDLNRIRKKPYIQLKDADGRPDKVVAEEAWENHLKRNDSIIVDIFHGLFKSTLVCPECAKISVTFDPFCYLTLPLPMKKERTLEVYLVRMDPLTKPMQYKVVVPKIGNILDLCTALSALSGIPADKMIVTDIYNHRFHRIFAMDENLSSIMERDDIYVFEININRTEDTEHVIIPVCLREKFRHSSYTHHTGSSLFGQPFLMAVPRNNTEDKLYNLLLLRMCRYVKISTETEETEGSLHCCKDQNINGNGPNGIHEEGSPSEMETDEPDDESSQDQELPSENENSQSEDSVGGDNDSENGLCTEDTCKGQLTGHKKRLFTFQFNNLGNTDINYIKDDTRHIRFDDRQLRLDERSFLALDWDPDLKKRYFDENAAEDFEKHESVEYKPPKKPFVKLKDCIELFTTKEKLGAEDPWYCPNCKEHQQATKKLDLWSLPPVLVVHLKRFSYSRYMRDKLDTLVDFPINDLDMSEFLINPNAGPCRYNLIAVSNHYGGMGGGHYTAFAKNKDDGKWYYFDDSSVSTASEDQIVSKAAYVLFYQRQDTFSGTGFFPLDRETKGASAATGIPLESDEDSNDNDNDIENENCMHTN
- binding [1]: binds
- binding [2]: binds

— PMC4650652
